Data as given in publication PMC12431657, “Discovery and mechanistic insights of dibenzoylmethane as a broad spectrum inhibitor of coronavirus” (PLOS Pathogens, 2025).
Counter-ions that a name gives are not always drawn. Like-named read-outs stand apart in the source and are kept apart here. Out of some 3,300 compounds screened, about 95 (3%) showed an effect of 50% or more. The list shows a part of the results.

System: HCoV-229E
Set-up: species or system Huh-7; HTS, protection from HCoV-229E induced cell death, luminescent cell viability (CellCounting-Lite 2.0), inhibition rate
Details: 24 h post infection, 1 h compound pre-incubation, 10 µM, inhibitor

SMILES | 229E Inhibition rate | 229E Inhibition rate (229E Inhibition rate, 24 h)
O=C(O)CNC(=O)c1cccnc1 [Nicotinuric acid] | 15.7% | –
COc1ccc2cc1Oc1ccc(cc1)C[C@H]1c3cc(c(OC)cc3CCN1C)Oc1c(OC)c(OC)cc3c1[C@H](C2)N(C)CC3 [tetrandrine] | 4.2% | –
Nc1[nH]cnc2ncnc1-2 [Adenine] | – | 24.2%
C=C(CCC=C(C)C)[C@H]1CC[C@]2(C)[C@@H]1[C@H](O)C[C@@H]1[C@@]3(C)C[C@@H](O)[C@H](O[C@@H]4O[C@H](CO)[C@@H](O)[C@H](O)[C@H]4O[C@@H]4O[C@H](CO)[C@@H](O)[C@H](O)[C@H]4O)C(C)(C)[C@@H]3CC[C@]12C [Damulin B] | 3.3% | –
COc1ccc(C(=O)/C=C/c2ccccc2)cc1 [4'-Methoxychalcone] | 28.4% | –
O=c1c(O)c(-c2ccc(O)c(O)c2)oc2cc(O)c(O)c(O)c12 [Quercetagetin] | 23% | –
CN[C@H](CC(C)C)C(=O)N[C@H]1C(=O)N[C@@H](CC(N)=O)C(=O)N[C@H]2C(=O)N[C@H]3C(=O)N[C@H](C(=O)N[C@H](C(=O)O)c4cc(O)cc(O)c4-c4cc3ccc4O)[C@H](O)c3ccc(c(Cl)c3)Oc3cc2cc(c3O[C@@H]2O[C@H](CO)[C@@H](O)[C@H](O)[C@H]2O[C@H]2C[C@](C)(N)[C@H](O)[C@H](C)O2)Oc2ccc(cc2Cl)[C@H]1O [Vancomycin] | – | 11.7%
O=c1oc2cc(O)ccc2c2oc3cc(O)ccc3c12 [Coumestrol] | 16.6% | –
Oc1cc(O)cc(/C=C/c2ccc(O)cc2O)c1 [Oxyresveratrol] | 15% | –
NCc1c[nH]c2ccccc12 [Indole-3-methanamine] | 10.2% | –
c1c2c(cc3c1OCO3)-c1cc3ccc4c(c3c[n+]1CC2)OCO4 [Coptisine (Sulfate)] | – | 3.5%
O=CN1C[C@@H]2C[C@H](C1)c1cccc(=O)n1C2 [N-Formylcytisine] | 32.3% | –
C=C1C(=O)O[C@@H]2C[C@@]3(C)CCC[C@H](C)C3=C[C@H]12 [Alantolactone] | 2.9% | –
CC(=O)NCCCCNCCCN [N8-Acetylspermidine dihydrochloride] | 37.4% | –
C[C@@H]1CC(=O)c2c(ccc3c2C(=O)c2cccc(O)c2C3=O)C1 [Ochromycinone] | 13.2% | –
Cc1cc(O)cc2c1O[C@](C)(CCC[C@H](C)CCC[C@H](C)CCCC(C)C)CC2 [Delta-Tocopherol] | 8.2% | –
O[C@H]1[C@H]2c3cc4c(cc3CN3CCC(=C[C@@H]1O)[C@H]23)OCO4 [Lycorine] | 38.3% | –
C[C@@H]1O[C@@H](O[C@H]2[C@H](Oc3cc(O)c(C(=O)CCc4ccc(O)cc4)c(O)c3)O[C@H](CO)[C@@H](O)[C@@H]2O)[C@H](O)[C@H](O)[C@H]1O [Naringin Dihydrochalcone] | 40.6% | –
COc1cc(/C=C/C(=O)OC2[C@H](O)CC(O)(C(=O)O)C[C@H]2O)ccc1O (stereo partly drawn) [4-Feruloylquinic acid] | 20.4% | –
CCCCCCCCC=O [Nonanal] | 9.1% | –

SMILES | 229E Inhibition rate | 229E Inhibition rate (229E Inhibition rate, 24 h)
CCCCC[C@@H](O)[C@H]1C(=O)O[C@H](C)[C@@H](O)/C=C/C=C/C=C/C=C/C=C(\C)[C@@H](O)[C@H](O)[C@H](O)C[C@H](O)C[C@H](O)C[C@H](O)C[C@H](O)C[C@@H]1O [Lagosin] | 21.5% | –
O=c1[nH]c(=O)c2nccnc2[nH]1 [Pteridine-2,4(1H,3H)-dione] | 15.9% | –
CC(=O)c1c(O)c(C)c(O)c(Cc2c(O)c3c(c(C(=O)/C=C/c4ccccc4)c2O)OC(C)(C)C=C3)c1O [Rottlerin] | 3.7% | –
OC[C@H]1NCC[C@@H](O)[C@@H]1O [Fagomine] | 9.8% | –
CC(=O)c1ccc(O)c(C)c1 [4'-Hydroxy-3'-methylacetophenone] | 11.7% | –
CCCCCCCCCCCCCCCCCCCCC(=O)O [Heneicosanoic acid] | 8.6% | –
CC[C@H](O)C(=O)O [(S)-2-Hydroxybutanoic acid] | 13.1% | –
CC(C)=CCC[C@@](C)(O)[C@H]1CC[C@]2(C)[C@@H]1[C@H](O)C[C@@H]1[C@@]3(C)C[C@@H](O)[C@H](O[C@@H]4O[C@H](CO)[C@@H](O)[C@H](O)[C@H]4O[C@@H]4O[C@H](CO)[C@@H](O)[C@H](O)[C@H]4O)C(C)(C)[C@@H]3CC[C@]12C [Gypenoside LI] | 0% | –
CC(C)(O)[C@H]1CC[C@@](C)([C@H]2[C@@H](O)C[C@@]3(C)[C@@H]4C[C@H](O)[C@H]5C(C)(C)[C@@H](O)CC[C@@]56C[C@@]46CC[C@]23C)O1 [Cyclogalegenin] | 12.6% | –
CC1(C)CCC2=C(O1)c1ccccc1C(=O)C2=O [β-Lapachone] | 1.2% | –
Nc1ncnc2c1ncn2[C@@H]1O[C@H](CO)[C@@H](O)[C@H]1OP(=O)(O)O [Adenosine-2'-monophosphate] | 18.6% | –
COc1ccc(/C=C/C(=O)c2ccc(OC)c3c2OC(C)(C)C=C3)cc1 [Millepachine] | 40% | –
NCCc1ccc(O)cc1 [Tyramine] | – | 6.6%
COc1ccc(C[C@@H]2COc3c(C)c(O)c(C)c(O)c3C2=O)cc1 [Methylophiopogonanone B] | 26.7% | –
CC1(C)CC[C@]2(C(=O)O)[C@H](O)C[C@]3(C)C(=CC[C@@H]4[C@@]5(C)CC[C@H](O)[C@@](C)(C=O)[C@@H]5CC[C@]43C)[C@@H]2C1 [Quillaic acid] | 8.1% | –
O=C(O)CCCC[C@@H]1SC[C@@H]2NC(=O)N[C@@H]21 [Biotin] | 15% | –
COc1c2c(cc3oc(C)cc(=O)c13)O[C@H](C(C)(C)O)C2 [5-O-Methylvisamminol] | 9.3% | –
C=C1CC[C@H]2O[C@]2(C)CC[C@@H]2[C@@H]1CC2(C)C [Caryophyllene oxide] | 16.3% | –
COc1cc(C[C@@H](C)[C@@H](C)Cc2ccc(O)c(OC)c2)ccc1O [Dihydroguaiaretic acid] | 46.5% | –
O=C(O)/C=C/c1cnc[nH]1 [Urocanic acid] | 13% | –

SMILES | 229E Inhibition rate | 229E Inhibition rate (229E Inhibition rate, 24 h)
C[C@H](CCC(=O)O)[C@H]1CC[C@H]2[C@@H]3CC[C@@H]4C[C@H](O)CC[C@]4(C)[C@H]3CC[C@]12C [Lithocholic acid] | 28.4% | –
Cc1nc2ccccc2o1 [2-Methylbenzoxazole] | 0% | –
CC(C)=CCc1cc2c(cc1O)oc(=O)c1c3ccc(O)cc3oc21 [Psoralidin] | 43.7% | –
CCCCCCCCCCCCCCCCCCCCC [Heneicosane] | 4.6% | –
COc1cc2c(cc1OC)-c1c(C)c3ccc(OC)c(OC)c3c[n+]1CC2 [Dehydrocorydaline (chloride)] | – | 41.1%
C=CCc1cc(OC)c(O[C@@H](C)[C@H](O)c2ccc(O)c(OC)c2)c(OC)c1 [Myrislignan] | 0% | –
O=C(O)CCc1ccc(O)c(O)c1 [Dihydrocaffeic acid] | 0% | –
C/C=C1\[C@H]2C=C(C)C[C@]1(N)c1ccc(=O)[nH]c1C2 [(-)-Huperzine A] | 16.2% | –
CC(C)=CCOc1c2ccoc2cc2oc(=O)ccc12 [Isoimperatorin] | 19.3% | –
COc1ccc(/C=C/C(=O)O)cc1O [Isoferulic acid] | 11.2% | –
CC(C)C1=C[C@H]2[C@@H](CC[C@]2(C)O)[C@](C)(O)CC1 [Alismoxide] | 10.6% | –
CC1(C)CC[C@]23CO[C@@]4(C=C[C@@H]5[C@@]6(C)CC[C@H](O)[C@@](C)(CO)[C@@H]6CC[C@@]5(C)[C@]4(C)C[C@@H]2O)[C@@H]3C1 [Saikogenin F] | 9.2% | –
Cc1c(O)c(C)c2occ(Cc3ccc4c(c3)OCO4)c(=O)c2c1O [Methylophiopogonone A] | 16.3% | –
C=C1C[C@@]23CC[C@H]4[C@@](C)(CCC[C@@]4(C)C(=O)O)[C@@H]2CC[C@@H]1C3 [Kaurenoic acid] | 8.8% | –
Cc1cc(O)c2c(c1)C(=O)c1cc(O)cc(O)c1C2=O [Emodin] | 26.5% | –
CC(C)(O)[C@@H]1CC[C@](C)([C@H]2[C@@H](O)C[C@@]3(C)[C@@H]4C[C@H](O)[C@H]5C(C)(C)[C@@H](O)CC[C@]5(C)C4=CC[C@]23C)O1 [Astragenol] | 18.5% | –
O=C(O)CC(=O)OC[C@H]1O[C@@H](Oc2c(-c3ccc(O)c(O)c3)oc3cc(O)cc(O)c3c2=O)[C@H](O)[C@@H](O)[C@@H]1O [Quercetin 3-O-(6''-O-malonyl)-β-D-glucoside] | 8% | –
CC(C)=CCC[C@](C)(O[C@@H]1O[C@H](CO[C@@H]2O[C@H](CO)[C@@H](O)[C@H](O)[C@H]2O)[C@@H](O)[C@H](O)[C@H]1O)[C@H]1CC[C@]2(C)[C@@H]1[C@H](O)C[C@@H]1[C@@]3(C)CC[C@H](O[C@@H]4O[C@H](CO)[C@@H](O)[C@H](O)[C@H]4O[C@@H]4O[C@H](CO)[C@@H](O)[C@H](O)[C@H]4O)C(C)(C)[C@@H]3CC[C@]12C [Ginsenoside Rb1] | 12.4% | –
O=C(O)CC1CCCCC1 [Cyclohexaneacetic acid] | 8.6% | –
C/C=C(\C)C(=O)O[C@H]1[C@H](OC(C)=O)[C@]2(CO)[C@H](O)C[C@]3(C)C(=CC[C@@H]4[C@@]5(C)CC[C@H](O[C@@H]6O[C@H](C(=O)O)[C@@H](O[C@@H]7O[C@H](CO)[C@@H](O)[C@H](O)[C@H]7O)[C@H](O)[C@H]6O[C@@H]6O[C@H](CO)[C@@H](O)[C@H](O)[C@H]6O)[C@](C)(CO)[C@@H]5CC[C@]43C)[C@@H]2CC1(C)C [Escin IA] | 8.8% | –

Of the compounds above, 3 contain a furan ring, fused or not.
SMILES | 229E Inhibition rate | 229E Inhibition rate (229E Inhibition rate, 24 h)
O=c1oc2cc(O)ccc2c2oc3cc(O)ccc3c12 [Coumestrol] | 16.6% | –
CC(C)=CCc1cc2c(cc1O)oc(=O)c1c3ccc(O)cc3oc21 [Psoralidin] | 43.7% | –
CC(C)=CCOc1c2ccoc2cc2oc(=O)ccc12 [Isoimperatorin] | 19.3% | –
